In PubChem BioAssay AID540276 (National Center for Advancing Translational Sciences (NCATS), 2011):
Out of some 300,000 compounds screened, about 5,400 (1.8%) were called active. Inconclusive results, whose numbers are uncertain, are shown with a selection of clear calls. Calls come from the whole dose curve; tested in HEK293 cells. A potency beside an inconclusive call is a rough fit, not a confirmed value.

Assay: qHTS for inhibitors of binding or entry into cells for Marburg Virus
Details: Marburg virus pseudotyped entry inhibition, cell reporter; activity change, negative = inhibition: at 37.8 µM (top of the series) unless noted
% is set by controls: 0 for no effect and ±100 for the full control effect; potency is the fitted concentration of half-maximal effect.

| SMILES | Potency | activity change, negative = inhibition |
| --- | --- | --- |
| O=C(CSc1nc2ccccc2c(=O)n1-c1ccc(F)c(Cl)c1)Nc1cccc(S(=O)(=O)N2CCOCC2)c1 | inconclusive: 5.62 µM [inhibitor, full curve] | – |
| CS(=O)(=O)N(CC(=O)N1CCN(Cc2ccccc2)CC1)Cc1ccccc1 | inconclusive: 5.8 µM [inhibitor, single point] | – |
| CCOCCCN(C(=O)c1snc(C(N)=O)c1N)C(C(=O)NC1CCCC1)c1ccc(F)cc1 (centres undefined) | inconclusive: 22.4 µM [inhibitor, single point] | – |
| O=C(N/N=C/C(Br)=C\c1ccccc1)c1cccs1 | inconclusive: 22.4 µM [inhibitor, single point] | – |
| CCCNC(=O)OC[C@H]1O[C@H](CCO/N=C/C[C@@H]2C=C[C@H](OC(C)=O)[C@@H](COC(C)=O)O2)C=C[C@@H]1Oc1ccc(OC)cc1 | inconclusive: 18.4 µM [inhibitor, single point] | – |
| C/C(Cn1nnc([N+](=O)[O-])n1)=N\NC(=O)c1ccccc1 | inconclusive: 14.6 µM [inhibitor, single point] | – |
| Cc1cc(C(=O)Nc2ccc3c(c2)OCCO3)c(C)o1 | inconclusive: 12.6 µM [inhibitor, partial curve, poor fit] | – |
| C/C(=N\Nc1ccccn1)c1ccc(N2CCOCC2)cc1 | – | inactive: 12.6% [at 46.1 µM] |
| O=C(O)c1ccccc1NC(=S)NC(=O)c1cccc2ccccc12 | – | inactive: 12.3% [at 46.1 µM] |
| COc1ccc(N(CC(=O)Nc2ccc(C)cc2C)S(=O)(=O)c2c(C)n[nH]c2C)cc1 | inconclusive: 7.94 µM [inhibitor, partial curve, poor fit] | – |
| O=C(NCc1ccccn1)c1cc(-c2ccccc2)on1 | inconclusive: 25.9 µM [activator, single point] | – |
| Cc1ccc(/C=C/C(=O)NCc2cccs2)o1 | – | inactive: -12.7% |
| CCSc1nnc(NC(=O)c2csc3c2CCCC3)s1 | inconclusive: 32.6 µM [inhibitor, single point] | – |
| COc1cccc(Nc2nc3ccc(OC)cc3s2)c1 | inconclusive: 35.5 µM [inhibitor, single point] | – |
| CCc1ccc(CN(Cc2ccco2)C(=O)COc2ccccc2Cl)cc1 | inconclusive: 22.4 µM [inhibitor, partial curve, poor fit] | – |
| O=C(CCS(=O)(=O)Cc1ccc(Cl)cc1)NCCCN1CCN(c2ccccc2F)CC1 | inconclusive: 32.6 µM [inhibitor, partial curve, poor fit] | – |
| Cc1ccc(CSC(Nc2ccc(F)cc2)=C(C#N)C#N)cc1 | inconclusive: 12.6 µM [inhibitor, partial curve, poor fit] | – |
| Cc1cc(NC(=O)NC(=O)c2ccc(F)cc2F)n[nH]1 | inconclusive: 20 µM [inhibitor, single point] | – |
| CNC(=S)NNC(=O)c1cccn(Cc2ccccc2)c1=O | inconclusive: 1 µM [inhibitor, full curve, poor fit] | – |
| O=C(CSc1nccn1-c1ccccc1)Nc1ccc2c(c1)OCO2 | – | inactive: -0.0373% [at 46.1 µM] |

| SMILES | Potency | activity change, negative = inhibition |
| --- | --- | --- |
| CCN(CC)S(=O)(=O)c1cccc(-c2nnc(SCCOc3ccccc3)o2)c1 | inconclusive: 35.5 µM [inhibitor, single point] | – |
| CN(C)S(=O)(=O)c1cccc(NC(=O)c2cncc(Br)c2)c1 | inconclusive: 1.58 µM [activator, partial curve, poor fit] | – |
| COc1cccc(NC(=O)CCc2nc(-c3ccc(C(C)(C)C)cc3)no2)c1 | inconclusive: 1.26 µM [inhibitor, full curve, poor fit] | – |
| COc1cc(NC(=O)Nc2cccc(Cl)c2)c(OC)cc1NC(=O)CN1CCCCC1 | inconclusive: 35.5 µM [inhibitor, single point] | – |
| Cc1nnc2ccc(-c3cccc(NS(=O)(=O)c4ccccc4[N+](=O)[O-])c3)nn12 | – | inactive: -8.29% [at 46.1 µM] |
| O=C(NCc1ccco1)c1cccc(NS(=O)(=O)c2cccc(F)c2)c1 | inconclusive: 28.2 µM [activator, single point] | – |
| CCOc1nc(CC)nc(NC(=O)NS(=O)(=O)c2ccccc2Cl)n1 | inconclusive: 10 µM [inhibitor, single point] | – |
| O=S(=O)(CCN1CCN(C(c2ccccc2)c2ccccc2)CC1)C(F)(F)F | inconclusive: 29.1 µM [inhibitor, single point] | – |
| CN(C)S(=O)(=O)c1ccc(N2CCCC2)c(C(=O)Nc2nc(-c3ccc(F)c(F)c3)cs2)c1 | inconclusive: 5.62 µM [activator, single point] | – |
| CCC(=O)N1CCN(c2ccc(NC(=O)COc3ccc(CC)cc3)cc2)CC1 | inconclusive: 6.31 µM [inhibitor, single point] | – |
| Cc1cccc(N2CCN(c3ccc(N4C(=O)CCCC4=O)cc3[N+](=O)[O-])CC2C)c1 (centres undefined) | inconclusive: 3.16 µM [activator, single point] | – |
| CCN(CC)S(=O)(=O)c1ccc(N2CC(C(=O)NCc3cccnc3)CC2=O)cc1 (centres undefined) | inconclusive: 35.5 µM [activator, single point] | – |
| CC(C)(C)c1cc(C(=O)NCCN2CCCC2)cc(C(C)(C)C)c1 | inconclusive: 20 µM [inhibitor, partial curve, poor fit] | – |
| Cc1ccc(-c2nnn3c2nc(NCCc2ccccc2)c2ccccc23)cc1 | inconclusive: 14.1 µM [activator, partial curve, poor fit] | – |
| CN(C)c1ccc(C(C(=O)NCC2CCCO2)N(Cc2ccccc2)C(=O)c2snc(C(N)=O)c2N)cc1 (centres undefined) | inconclusive: 10 µM [inhibitor, partial curve, poor fit] | – |
| O=c1c2c(nc3cc(-c4cccc(Cl)c4)[nH]n13)CCCC2 | inconclusive: 7.08 µM [inhibitor, partial curve, poor fit] | – |
| Cc1ccccc1NC(=O)Cc1nnc(SCC(=O)NC2CCCCC2)n1C | – | inactive: -0.197% [at 46.1 µM] |
| CCOc1ccc(N(C(=O)c2snc(C(N)=O)c2N)C(C(=O)NCC2CCCO2)c2ccco2)cc1 (centres undefined) | active: 12.6 µM | – |
| CCOc1cc(/C=C/c2ccc3cccc([N+](=O)[O-])c3n2)ccc1O | inconclusive: 14.1 µM [inhibitor, partial curve, poor fit] | – |

A portion of the results above:

| SMILES | Potency | activity change, negative = inhibition |
| --- | --- | --- |
| Cc1nnc2ccc(-c3cccc(NS(=O)(=O)c4ccccc4[N+](=O)[O-])c3)nn12 | – | inactive: -8.29% [at 46.1 µM] |
| O=C(NCc1ccco1)c1cccc(NS(=O)(=O)c2cccc(F)c2)c1 | inconclusive: 28.2 µM [activator, single point] | – |
| CCOc1nc(CC)nc(NC(=O)NS(=O)(=O)c2ccccc2Cl)n1 | inconclusive: 10 µM [inhibitor, single point] | – |
